Assay results published in ChEMBL document CHEMBL1145120, “Molecular modeling of the three-dimensional structure of dopamine 3 (D3) subtype receptor: discovery of novel and potent D3 ligands through a hybrid pharmacophore- and structure-based database searching approach” (J Med Chem, 2003).

By UniProt entry, the sequences of proteins in these tests, tags left out.
UniProt P35462, whole entry: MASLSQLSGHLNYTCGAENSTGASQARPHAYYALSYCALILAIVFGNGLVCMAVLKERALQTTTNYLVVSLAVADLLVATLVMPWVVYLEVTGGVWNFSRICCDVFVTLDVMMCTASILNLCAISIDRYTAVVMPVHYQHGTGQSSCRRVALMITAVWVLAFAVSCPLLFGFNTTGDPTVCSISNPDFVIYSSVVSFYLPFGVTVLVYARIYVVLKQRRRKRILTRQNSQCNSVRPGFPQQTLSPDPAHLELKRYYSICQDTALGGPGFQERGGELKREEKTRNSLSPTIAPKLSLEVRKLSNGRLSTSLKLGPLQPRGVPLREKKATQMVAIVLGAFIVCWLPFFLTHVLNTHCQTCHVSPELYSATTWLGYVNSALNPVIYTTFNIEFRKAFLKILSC

Biological target: D(3) dopamine receptor (Homo sapiens, UniProt P35462)
Test: biochemical

O=c1[nH]c2ccccc2n1CCCN1CCC(n2c(=O)[nH]c3cc(Cl)ccc32)CC1 [DOMPERIDONE]
Ki: 3.5 nM
